Measured values taken from article PMC6846684.

Amino acid sequences for entries named in this document (tags omitted). A change or cut given only in a name is not applied to a line headed by its entry.
UniProt Q03532: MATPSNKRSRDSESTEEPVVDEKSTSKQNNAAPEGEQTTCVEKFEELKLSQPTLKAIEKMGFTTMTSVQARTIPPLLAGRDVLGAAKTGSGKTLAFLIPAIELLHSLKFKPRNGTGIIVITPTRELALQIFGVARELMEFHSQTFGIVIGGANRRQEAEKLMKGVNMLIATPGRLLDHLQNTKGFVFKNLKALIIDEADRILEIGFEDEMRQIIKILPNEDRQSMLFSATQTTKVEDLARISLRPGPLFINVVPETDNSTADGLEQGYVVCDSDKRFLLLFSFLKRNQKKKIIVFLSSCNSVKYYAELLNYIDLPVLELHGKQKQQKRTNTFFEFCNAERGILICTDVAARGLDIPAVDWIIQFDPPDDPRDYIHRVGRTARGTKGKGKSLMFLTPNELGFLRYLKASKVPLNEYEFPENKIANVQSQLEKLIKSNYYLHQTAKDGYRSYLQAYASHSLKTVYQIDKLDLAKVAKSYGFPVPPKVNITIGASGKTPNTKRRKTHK
UniProt P40160: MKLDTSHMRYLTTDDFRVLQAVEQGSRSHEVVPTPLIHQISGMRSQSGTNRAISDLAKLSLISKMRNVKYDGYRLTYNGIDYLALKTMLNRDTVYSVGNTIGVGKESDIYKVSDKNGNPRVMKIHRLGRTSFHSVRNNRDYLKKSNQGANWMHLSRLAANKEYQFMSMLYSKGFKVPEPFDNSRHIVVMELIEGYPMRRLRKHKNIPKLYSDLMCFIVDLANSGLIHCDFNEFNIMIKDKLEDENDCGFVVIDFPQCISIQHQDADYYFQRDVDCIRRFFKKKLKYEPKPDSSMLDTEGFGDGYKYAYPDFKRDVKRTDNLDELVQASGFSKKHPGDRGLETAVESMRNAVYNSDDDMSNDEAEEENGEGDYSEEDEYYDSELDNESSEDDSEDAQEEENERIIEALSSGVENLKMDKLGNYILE

How the values were obtained:
[1] = target: Has1-FTP (wild type Has1 with FLAG-TEV-protein-A tag) (S. cerevisiae) (UniProt Q03532); experiment: affinity purification with mass spectrometry; tandem affinity purification via Has1-FTP (IgG-Sepharose, TEV elution, anti-FLAG resin, FLAG peptide elution; 100 mM NaCl, 50 mM Tris-HCl pH 7.4, 5 mM MgCl2); FLAG eluate fractionated on a 10-40% sucrose gradient; proteins of fraction 6 (pre-40S) resolved by SDS-PAGE and identified by MALDI-TOF
[2] = target: Has1-AAA-FTP (motif III mutant S228A/T230A) (S. cerevisiae) (UniProt Q03532); experiment: affinity purification with mass spectrometry; SILAC: wild type Has1-FTP culture in heavy medium mixed in equal amounts with a mutant Has1-FTP culture in light medium; endogenous Has1 depleted for 4 hours with doxycycline; tandem affinity purification via the FTP tag; FLAG eluate analysed by nLC-MS/MS; data of the three mutants pooled
[3] = target: Has1-DAAD-FTP (motif II mutant E197A) (S. cerevisiae) (UniProt Q03532); experiment: as above
[4] = target: Has1-FTP (wild type Has1 with FLAG-TEV-protein-A tag) (S. cerevisiae) (UniProt Q03532); experiment: as above
[5] = target: Has1-KA-FTP (motif I mutant K92A) (S. cerevisiae) (UniProt Q03532); experiment: as above

Measured: binding

Rio2 (from UniProt P40160 1-425)
binds: [1]

B1: Tsr1 (protein, UniProt Q07381 1-788)
chain: MAGHSHRSSLKNGHKSYKSKHASKGALKRLYKGKVEKEPVGTGKPDKQVSKLQRKNKAKQLRAQRILDSIENRKLFEGKNGAAKIITIVPLVNDLDPLDILYKLLKCADDEGIMVQEVDSKRIFNVHIKKFKSNLKIIIPDMTNFLNILDCAKVADFVVFGLSGVQEVDEEFGEQIIRALELQGIASYIGVISNLSAVHEKEKFQLDVKQSLESYFKHFFPSEERVYNLEKNSDALNVLRTLCQRLPRSINWRDNRGYVVADFVDFVETSPDSGDLVIEGTVRGIGFNANRLVHIPDFGDFQLNKIEKISESSQKRKIIKEKATDSLSLELDLQTVFESNMNRDTLDEYAPEGTEDWSDYDEDFEYDGLTTARYDDHGFLPGREQTSKKAAVPKGTSDYQAKWYLDDVIDANEEEEAEQTNGKDETMMEIDDEMMVEQDNEEVAGDEEYDIEDNEGFEELSPEEEERQLREFRDMEKEDREFPDEIELEPSESAIERLKRYRGLKNLYNCDWQVDEKDPSSPAEWKRLLRIGNYKNTKNRIIKETKNEAQAIAGDRIRMFIRFPKFLLEKIQDPKQLLFAVYGLLLHEHKNAVVNFSLQRWEQYDKPVPSQEPIVVQYGVRRYTIQPLFSQGSNSPNNVHKYERFLHPDTVSVATCIAPVDFTQSPAIFFKPSPTDAKNIELIGHGTFLNADHSRILAKRAILTGHPFRFHKTVVTVRYMFFRPEDVEWFKSIPLFTKSGRSGFIKESLGTHGYFKATFDGKLSAQDVVAMSLYKRMWPMPSLPWNGM
binds: [2] | [3] | [4] | [5] | [1]

B2: Enp1 (protein, UniProt P38333 1-483)
chain: MARASSTKARKQRHDPLLKDLDAAQGTLKKINKKKLAQNDAANHDAANEEDGYIDSKASRKILQLAKEQQDEIEGEELAESERNKQFEARFTTMSYDDEDEDEDEDEEAFGEDISDFEPEGDYKEEEEIVEIDEEDAAMFEQYFKKSDDFNSLSGSYNLADKIMASIREKESQVEDMQDDEPLANEQNTSRGNISSGLKSGEGVALPEKVIKAYTTVGSILKTWTHGKLPKLFKVIPSLRNWQDVIYVTNPEEWSPHVVYEATKLFVSNLTAKESQKFINLILLERFRDNIETSEDHSLNYHIYRAVKKSLYKPSAFFKGFLFPLVETGCNVREATIAGSVLAKVSVPALHSSAALSYLLRLPFSPPTTVFIKILLDKKYALPYQTVDDCVYYFMRFRILDDGSNGEDATRVLPVIWHKAFLTFAQRYKNDITQDQRDFLLETVRQRGHKDIGPEIRRELLAGASREFVDPQEANDDLMIDVN
binds: [2] | [3] | [4] | [5] | [1]

B3: Rrp12 (protein, UniProt Q12754 1-1228)
chain: MDQDKVAFLLELEDKLAKIRSQVNSKLENQKHIAIILTAVEENIAGQATNDVSKNIVNYIISFMSLLDQAVDPSTHEIKDIQLASSSTYLLDLIFHYSPKVLLRSKFSEILTKIAPCITAEKANAPLIRAAIGCLESLLIAQDAQAWNNTYDLNVTPKRGLQGILELSLDVRPKVRKRALDAVHAVLLNPPVAPTAEHVAAVFVADFCDKQLAGILNDLSNLSNKQLKAQKTKEDINASVMRSLRLITSVVSTGQWPSSQIEPLCDVLLGVTKSSEQYLVSASFECFESMFKTMAETTISSGLAENKYLRVLDTIFALKPSNVDTLLTKSWIAVVIKGMSTYATHQPLKALRKIPGVFHIMCTYLASETPEVYQAASQCLISILSESVKDDLLLYTPSVDEKVFKNVDEIISQIAKTFIDFLSIRYSHCSREILKILVAAFNKFRYRSNPHFLKSLKIVDTWRVNEEQFMDLRNEIELVIGASISAMGPEMILAEAPLNLDNPSSERPGRAWLLPLIRDYTKNANLATFQNELAPYIKSFQSKFDKVPEESIQLRVFQTIVDQIWSTLPRFCELPMDLRESFTDEFASELSSLLYSEVELRTTICHALKVLAESNVSYAEESSSHNVLLLQRFPISEAQKNIEYLSTKSTNLLAVLFNVYTQTTPNARSYILETIDQYLKITSKEDLEKTFNNVCGLLKNSMNEESSGNVNKEKKKPQLTATLLDLIICMITYLPVSSYSALFSMFSLTVNSADALIQKRAYRIITKLSELKSGSTAVAQFISDIENVMVDSASSVQTSAKAARLTAIKTIVELLPLDHLDFIVRTVAEVILSTKDVNEKSRETAFDTLICMGRKMNEPNGIIKLFQIPGYDPTTPDQSSSISEFFKIISAGLIGESQHMVSSSITGYACLVFEFKNELDSGILMDIYDTIELYLTSNSREIVKSAIGFTKVCVLGLPEELMRPKVPELLLKLLRWSHEHTGHFKAKVKHIIERLIRRFGYDYIEANFPEEDRRLLTNIRKMRNRNKRKDEEVTTGVSDVAATKGSRFMSAFDEAVYGSDEENDNGSDQEENVAGGKMKNGAKQFIVESGDNPLDLLDSQTLAHISSTRPKKFNKNQNRARFNDDAFNFDSEGKLVVKGQPKPSTNVDDPLSAVTSGINAYLEAVKSGPVRGQRNKLKFRKNGKDSDEFGDDDDGEKDSRLMRGRVNQGNKIGKHNKKGPKFKSRKKL
binds: [2] | [3] | [4] | [5]

B4: Ltv1 (protein, UniProt P34078 1-463)
chain: MSKKFSSKNSQRYVVVHRPHDDPSFYDTDASAHVLVPVSNPNKTSPEADLRKKDVSSTKPKGRRAHVGEAALYGINFDDSEYDYTQHLKPIGLDPENSIFIASKGNEQKVEKKNIEDLFIEPKYRRDEIEKDDALPVFQRGMAKPEYLLHQQDTTDEIRGFKPDMNPALREVLEALEDEAYVVNDDVVVEDISKKTQLQGDNYGEEEKEDDIFAQLLGSGEAKDEDEFEDEFDEWDIDNVENFEDENYVKEMAQFDNIENLEDLENIDYQADVRRFQKDNSILEKHNSDDEFSNAGLDSVNPSEEEDVLGELPSIQDKSKTGKKKRKSRQKKGAMSDVSGFSMSSSAIARTETMTVLDDQYDQIINGYENYEEELEEDEEQNYQPFDMSAERSDFESMLDDFLDNYELESGGRKLAKKDKEIERLKEAADEVSKGKLSQRRNRERQEKKKLEKVTNTLSSLKF
binds: [1]

No constants are given. Whether binding was seen depends on the method and setting. In cells and extracts the contact can be indirect. Here binding means that the protein was enriched with, or labelled near, the bait; the list need not be complete.
